Article PMC6435701
Results are given in words; binding and its absence hold for the method and conditions named. For some assays here: In cells and extracts the contact can be indirect. Some binding calls cover weakened binding; strength is not graded here.

How the values were obtained:
[1] = biological target: ATPase family AAA domain-containing protein 3A (human (endogenous in iPS-derived neurons, fibroblasts, postmortem brain, HEK293)) (UniProt Q9NVI7); assay: cross-linking; HEK293 cells treated with cell-permeable DSP for 5 min at 37 °C, total lysates, SDS-PAGE and WB
[2] = biological target: ATPase family AAA domain-containing protein 3A (human (endogenous in iPS-derived neurons, fibroblasts, postmortem brain, HEK293)) (UniProt Q9NVI7); assay: non-reducing SDS-PAGE and western blot; endogenous protein in total lysates of cells or tissues, 8% SDS-PAGE in the presence or absence of β-mercaptoethanol, WB with anti-ATAD3A or anti-Drp1

B1: ATPase family AAA domain-containing protein 3A (protein, UniProt Q9NVI7-2 1-586)
chain: MSWLFGINKGPKGEGAGPPPPLPPAQPGAEGGGDRGLGDRPAPKDKWSNFDPTGLERAAKAARELEHSRYAKDALNLAQMQEQTLQLEQQSKLKEYEAAVEQLKSEQIRAQAEERRKTLSEETRQHQARAQYQDKLARQRYEDQLKQQQLLNEENLRKQEESVQKQEAMRRATVEREMELRHKNEMLRVEAEARARAKAERENADIIREQIRLKAAEHRQTVLESIRTAGTLFGEGFRAFVTDWDKVTATVAGLTLLAVGVYSAKNATLVAGRFIEARLGKPSLVRETSRITVLEALRHPIQVSRRLLSRPQDALEGVVLSPSLEARVRDIAIATRNTKKNRSLYRNILMYGPPGTGKTLFAKKLALHSGMDYAIMTGGDVAPMGREGVTAMHKLFDWANTSRRGLLLFVDEADAFLRKRATEKISEDLRATLNAFLYRTGQHSNKFMLVLASNQPEQFDWAINDRINEMVHFDLPGQEERERLVRMYFDKYVLKPATEGKQRLKLAQFDYGRKCSEVARLTEGMSGREIAQLAVSWQATAYASEDGVLTEAMMDTRVQDAVQQHQQKMCWLKAEGPGRGDEPSPS
[1]
  binding: binds
[2]
  binding: binds
